{
  "sequences": {"note": "Amino acid sequences for entries named in this document (tags omitted).", "UniProt O75444": "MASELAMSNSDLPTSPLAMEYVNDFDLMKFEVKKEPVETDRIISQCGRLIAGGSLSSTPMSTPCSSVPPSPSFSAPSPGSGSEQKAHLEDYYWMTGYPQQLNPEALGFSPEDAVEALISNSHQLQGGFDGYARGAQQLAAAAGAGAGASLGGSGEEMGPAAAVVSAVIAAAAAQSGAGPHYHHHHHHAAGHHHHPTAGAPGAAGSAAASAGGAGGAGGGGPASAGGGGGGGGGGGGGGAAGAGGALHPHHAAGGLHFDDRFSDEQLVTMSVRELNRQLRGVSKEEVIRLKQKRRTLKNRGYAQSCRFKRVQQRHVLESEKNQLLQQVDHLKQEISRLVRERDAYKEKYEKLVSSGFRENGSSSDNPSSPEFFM"},
  "source": "paper PMC5496436",
  "binders": {"B1": {"name": "UBE2O (found by MS in the c-Maf co-immunoprecipitates) (enzyme, UniProt Q9C0C9 1-1292)", "chain": "MADPAAPTPAAPAPAQAPAPAPEAVPAPAAAPVPAPAPASDSASGPSSDSGPEAGSQRLLFSHDLVSGRYRGSVHFGLVRLIHGEDSDSEGEEEGRGSSGCSEAGGAGHEEGRASPLRRGYVRVQWYPEGVKQHVKETKLKLEDRSVVPRDVVRHMRSTDSQCGTVIDVNIDCAVKLIGTNCIIYPVNSKDLQHIWPFMYGDYIAYDCWLGKVYDLKNQIILKLSNGARCSMNTEDGAKLYDVCPHVSDSGLFFDDSYGFYPGQVLIGPAKIFSSVQWLSGVKPVLSTKSKFRVVVEEVQVVELKVTWITKSFCPGGTDSVSPPPSVITQENLGRVKRLGCFDHAQRQLGERCLYVFPAKVEPAKIAWECPEKNCAQGEGSMAKKVKRLLKKQVVRIMSCSPDTQCSRDHSMEDPDKKGESKTKSEAESASPEETPDGSASPVEMQDEGAEEPHEAGEQLPPFLLKEGRDDRLHSAEQDADDEAADDTDDTSSVTSSASSTTSSQSGSGTSRKKSIPLSIKNLKRKHKRKKNKITRDFKPGDRVAVEVVTTMTSADVMWQDGSVECNIRSNDLFPVHHLDNNEFCPGDFVVDKRVQSCPDPAVYGVVQSGDHIGRTCMVKWFKLRPSGDDVELIGEEEDVSVYDIADHPDFRFRTTDIVIRIGNTEDGAPHKEDEPSVGQVARVDVSSKVEVVWADNSKTIILPQHLYNIESEIEESDYDSVEGSTSGASSDEWEDDSDSWETDNGLVEDEHPKIEEPPIPPLEQPVAPEDKGVVISEEAATAAVQGAVAMAAPMAGLMEKAGKDGPPKSFRELKEAIKILESLKNMTVEQLLTGSPTSPTVEPEKPTREKKFLDDIKKLQENLKKTLDNVAIVEEEKMEAVPDVERKEDKPEGQSPVKAEWPSETPVLCQQCGGKPGVTFTSAKGEVFSVLEFAPSNHSFKKIEFQPPEAKKFFSTVRKEMALLATSLPEGIMVKTFEDRMDLFSALIKGPTRTPYEDGLYLFDIQLPNIYPAVPPHFCYLSQCSGRLNPNLYDNGKVCVSLLGTWIGKGTERWTSKSSLLQVLISIQGLILVNEPYYNEAGFDSDRGLQEGYENSRCYNEMALIRVVQSMTQLVRRPPEVFEQEIRQHFSTGGWRLVNRIESWLETHALLEKAQALPNGVPKASSSPEPPAVAELSDSGQQEPEDGGPAPGEASQGSDSEGGAQGLASASRDHTDQTSETAPDASVPPSVKPKKRRKSYRSFLPEKSGYPDIGFPLFPLSKGFIKSIRGVLTQFRAALLEAGMPECTEDK"}},
  "biological_target": "c-Maf (bait of the AP/MS) (UniProt O75444)",
  "test": "affinity purification with mass spectrometry; affinity purification with a c-Maf specific antibody, then LC/MS/MS; done as in ref. 12, cells not told",
  "note": "No constants are given. Whether binding was seen depends on the method and setting. Binding seen in cells or lysates may run through a third protein. A yes stands for co-enrichment or nearness to the bait. Other partners may have been found.",
  "data": [
    {"binder": "B1", "values": [
      {"measurement": "binding", "value": "binds"}
    ]}
  ]
}
